# Data reported in the supplement of paper PMC12819154, “High-throughput peptide-centric local stability assay extends protein–ligand identification to membrane proteins, tissues and bacteria” (Nature Structural & Molecular Biology, 2025).
# By UniProt entry, the sequences of proteins in these tests, tags left out. Where a name states a change or a piece, a line headed by the entry shows the natural chain unless it says otherwise.
# UniProt Q8NDB6: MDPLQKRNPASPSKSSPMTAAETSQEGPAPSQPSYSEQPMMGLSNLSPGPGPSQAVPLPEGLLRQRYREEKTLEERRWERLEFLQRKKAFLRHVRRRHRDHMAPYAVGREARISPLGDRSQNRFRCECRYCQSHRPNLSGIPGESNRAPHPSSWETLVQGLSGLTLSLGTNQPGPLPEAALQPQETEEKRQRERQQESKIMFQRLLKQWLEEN
# UniProt Q8N531: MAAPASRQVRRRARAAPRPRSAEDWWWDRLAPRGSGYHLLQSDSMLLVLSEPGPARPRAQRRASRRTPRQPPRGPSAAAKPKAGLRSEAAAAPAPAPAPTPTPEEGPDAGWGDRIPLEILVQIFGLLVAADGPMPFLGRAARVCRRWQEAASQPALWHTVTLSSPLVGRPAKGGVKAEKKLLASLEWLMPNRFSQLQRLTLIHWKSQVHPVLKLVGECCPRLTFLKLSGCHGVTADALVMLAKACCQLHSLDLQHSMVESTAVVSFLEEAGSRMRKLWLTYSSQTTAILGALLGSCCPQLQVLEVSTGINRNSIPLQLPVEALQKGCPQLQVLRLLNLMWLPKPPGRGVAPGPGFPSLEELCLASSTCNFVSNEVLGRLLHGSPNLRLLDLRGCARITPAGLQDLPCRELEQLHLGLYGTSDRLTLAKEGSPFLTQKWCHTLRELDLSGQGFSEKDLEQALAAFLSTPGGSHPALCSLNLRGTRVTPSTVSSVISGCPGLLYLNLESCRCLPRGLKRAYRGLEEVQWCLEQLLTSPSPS
# UniProt Q8N5A5: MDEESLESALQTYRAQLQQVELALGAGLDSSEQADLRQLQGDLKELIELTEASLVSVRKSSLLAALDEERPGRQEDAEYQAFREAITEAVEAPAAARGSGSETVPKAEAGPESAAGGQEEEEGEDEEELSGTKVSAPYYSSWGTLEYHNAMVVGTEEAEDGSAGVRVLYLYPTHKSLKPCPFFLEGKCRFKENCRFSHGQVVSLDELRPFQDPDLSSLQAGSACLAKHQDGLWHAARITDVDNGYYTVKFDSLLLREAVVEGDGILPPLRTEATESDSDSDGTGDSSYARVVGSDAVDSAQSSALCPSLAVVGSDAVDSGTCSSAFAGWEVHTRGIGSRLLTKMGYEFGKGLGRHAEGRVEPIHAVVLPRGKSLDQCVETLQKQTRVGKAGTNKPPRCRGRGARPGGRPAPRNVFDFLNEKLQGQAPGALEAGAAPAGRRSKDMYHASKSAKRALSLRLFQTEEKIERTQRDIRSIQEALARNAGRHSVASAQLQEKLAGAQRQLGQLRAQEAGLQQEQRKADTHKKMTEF
# UniProt Q8ND24: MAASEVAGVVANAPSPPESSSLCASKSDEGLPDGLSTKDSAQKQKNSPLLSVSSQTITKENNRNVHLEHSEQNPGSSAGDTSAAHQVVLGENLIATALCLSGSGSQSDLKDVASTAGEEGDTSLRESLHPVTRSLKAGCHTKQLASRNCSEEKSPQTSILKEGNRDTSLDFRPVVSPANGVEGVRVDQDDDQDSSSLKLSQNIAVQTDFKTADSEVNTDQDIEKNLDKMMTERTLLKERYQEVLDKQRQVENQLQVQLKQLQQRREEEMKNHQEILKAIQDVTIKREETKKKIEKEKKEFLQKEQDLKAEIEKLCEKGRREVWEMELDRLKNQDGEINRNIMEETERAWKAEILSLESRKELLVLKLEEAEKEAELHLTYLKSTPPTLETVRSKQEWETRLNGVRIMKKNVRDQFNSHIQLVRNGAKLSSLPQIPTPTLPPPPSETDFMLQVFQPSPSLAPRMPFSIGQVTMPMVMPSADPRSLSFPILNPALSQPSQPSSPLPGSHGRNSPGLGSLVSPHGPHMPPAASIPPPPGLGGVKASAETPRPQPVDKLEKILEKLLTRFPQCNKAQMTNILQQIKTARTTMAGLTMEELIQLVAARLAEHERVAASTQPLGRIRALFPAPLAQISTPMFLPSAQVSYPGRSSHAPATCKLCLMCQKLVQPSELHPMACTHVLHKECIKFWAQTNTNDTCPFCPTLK
# UniProt Q8NHV4, whole entry: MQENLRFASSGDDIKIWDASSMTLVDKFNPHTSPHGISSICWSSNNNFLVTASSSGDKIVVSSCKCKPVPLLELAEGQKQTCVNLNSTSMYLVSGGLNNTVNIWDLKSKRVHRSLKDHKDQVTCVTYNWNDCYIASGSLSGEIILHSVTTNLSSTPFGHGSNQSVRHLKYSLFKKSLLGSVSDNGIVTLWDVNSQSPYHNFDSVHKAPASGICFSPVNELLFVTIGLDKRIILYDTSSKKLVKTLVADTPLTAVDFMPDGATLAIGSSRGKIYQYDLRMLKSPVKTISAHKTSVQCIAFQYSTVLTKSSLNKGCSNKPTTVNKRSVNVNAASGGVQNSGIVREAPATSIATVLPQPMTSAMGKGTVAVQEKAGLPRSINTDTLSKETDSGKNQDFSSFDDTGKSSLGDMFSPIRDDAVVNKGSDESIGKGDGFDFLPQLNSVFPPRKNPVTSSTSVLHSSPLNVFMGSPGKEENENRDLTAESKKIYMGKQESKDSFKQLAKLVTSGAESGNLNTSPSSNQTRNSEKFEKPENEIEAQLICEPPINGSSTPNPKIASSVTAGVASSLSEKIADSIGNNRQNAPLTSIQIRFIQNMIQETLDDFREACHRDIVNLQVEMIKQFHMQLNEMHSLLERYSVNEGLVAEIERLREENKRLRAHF
# UniProt Q8NI77: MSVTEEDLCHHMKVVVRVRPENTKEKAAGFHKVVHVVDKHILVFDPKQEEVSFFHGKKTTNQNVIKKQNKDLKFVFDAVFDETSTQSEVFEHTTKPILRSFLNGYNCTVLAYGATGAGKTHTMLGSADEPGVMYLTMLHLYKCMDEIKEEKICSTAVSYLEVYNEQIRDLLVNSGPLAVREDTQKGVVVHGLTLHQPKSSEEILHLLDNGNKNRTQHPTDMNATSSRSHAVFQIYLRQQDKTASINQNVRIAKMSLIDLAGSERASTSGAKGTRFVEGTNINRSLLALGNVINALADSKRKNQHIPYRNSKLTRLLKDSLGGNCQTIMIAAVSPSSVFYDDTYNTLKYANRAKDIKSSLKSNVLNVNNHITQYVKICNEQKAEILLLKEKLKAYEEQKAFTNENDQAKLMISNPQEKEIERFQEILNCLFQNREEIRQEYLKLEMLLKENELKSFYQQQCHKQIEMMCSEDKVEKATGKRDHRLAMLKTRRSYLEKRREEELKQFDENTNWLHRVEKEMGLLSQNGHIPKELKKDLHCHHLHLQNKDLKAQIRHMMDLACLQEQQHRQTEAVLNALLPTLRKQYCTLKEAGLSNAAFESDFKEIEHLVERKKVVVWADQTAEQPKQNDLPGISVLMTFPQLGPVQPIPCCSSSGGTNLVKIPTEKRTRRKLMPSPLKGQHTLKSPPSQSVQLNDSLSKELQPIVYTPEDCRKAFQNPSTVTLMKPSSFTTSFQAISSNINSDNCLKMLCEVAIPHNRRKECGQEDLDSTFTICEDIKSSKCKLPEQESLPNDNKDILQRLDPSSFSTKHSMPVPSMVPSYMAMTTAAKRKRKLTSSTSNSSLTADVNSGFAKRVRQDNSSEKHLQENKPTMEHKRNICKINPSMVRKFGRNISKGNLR
# UniProt Q8N883: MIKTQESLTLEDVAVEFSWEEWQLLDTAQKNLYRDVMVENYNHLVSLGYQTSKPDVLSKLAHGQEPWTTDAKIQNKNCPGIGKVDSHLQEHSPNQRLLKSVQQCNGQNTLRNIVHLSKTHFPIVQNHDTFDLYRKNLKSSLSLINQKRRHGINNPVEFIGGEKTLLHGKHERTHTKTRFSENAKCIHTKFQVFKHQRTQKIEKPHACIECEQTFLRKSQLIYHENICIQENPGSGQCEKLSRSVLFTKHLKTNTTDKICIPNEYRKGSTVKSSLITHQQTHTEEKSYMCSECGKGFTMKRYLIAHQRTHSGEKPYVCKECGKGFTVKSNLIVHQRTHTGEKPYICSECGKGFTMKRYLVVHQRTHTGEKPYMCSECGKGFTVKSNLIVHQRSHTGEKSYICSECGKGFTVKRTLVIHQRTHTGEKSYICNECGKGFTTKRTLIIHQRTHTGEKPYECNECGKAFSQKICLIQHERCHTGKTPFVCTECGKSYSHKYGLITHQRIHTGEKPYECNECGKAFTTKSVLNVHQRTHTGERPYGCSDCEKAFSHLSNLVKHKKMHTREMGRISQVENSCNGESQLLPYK
# UniProt Q8NA72: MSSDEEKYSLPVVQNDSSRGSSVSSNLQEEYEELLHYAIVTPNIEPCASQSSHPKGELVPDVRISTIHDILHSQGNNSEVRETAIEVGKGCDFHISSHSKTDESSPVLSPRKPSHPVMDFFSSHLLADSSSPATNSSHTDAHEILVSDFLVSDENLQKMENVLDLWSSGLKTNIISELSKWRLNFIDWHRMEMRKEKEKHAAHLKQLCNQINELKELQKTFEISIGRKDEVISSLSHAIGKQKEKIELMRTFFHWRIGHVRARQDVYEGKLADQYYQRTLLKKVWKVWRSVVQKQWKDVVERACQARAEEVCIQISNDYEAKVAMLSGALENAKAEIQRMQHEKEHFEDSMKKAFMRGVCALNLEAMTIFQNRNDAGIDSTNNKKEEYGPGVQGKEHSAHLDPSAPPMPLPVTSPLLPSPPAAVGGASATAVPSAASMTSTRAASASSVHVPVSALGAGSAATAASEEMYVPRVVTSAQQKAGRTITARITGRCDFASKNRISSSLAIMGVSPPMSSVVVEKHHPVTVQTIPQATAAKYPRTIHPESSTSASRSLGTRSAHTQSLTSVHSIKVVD
# UniProt Q8NHG8: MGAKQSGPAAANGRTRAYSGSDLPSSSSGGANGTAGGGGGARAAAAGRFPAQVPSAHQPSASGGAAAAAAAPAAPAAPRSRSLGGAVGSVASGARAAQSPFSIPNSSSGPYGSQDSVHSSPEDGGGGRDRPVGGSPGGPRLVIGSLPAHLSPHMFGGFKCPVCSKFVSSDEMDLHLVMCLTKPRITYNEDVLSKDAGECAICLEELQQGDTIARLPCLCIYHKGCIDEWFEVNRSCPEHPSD
# UniProt Q8NBN3: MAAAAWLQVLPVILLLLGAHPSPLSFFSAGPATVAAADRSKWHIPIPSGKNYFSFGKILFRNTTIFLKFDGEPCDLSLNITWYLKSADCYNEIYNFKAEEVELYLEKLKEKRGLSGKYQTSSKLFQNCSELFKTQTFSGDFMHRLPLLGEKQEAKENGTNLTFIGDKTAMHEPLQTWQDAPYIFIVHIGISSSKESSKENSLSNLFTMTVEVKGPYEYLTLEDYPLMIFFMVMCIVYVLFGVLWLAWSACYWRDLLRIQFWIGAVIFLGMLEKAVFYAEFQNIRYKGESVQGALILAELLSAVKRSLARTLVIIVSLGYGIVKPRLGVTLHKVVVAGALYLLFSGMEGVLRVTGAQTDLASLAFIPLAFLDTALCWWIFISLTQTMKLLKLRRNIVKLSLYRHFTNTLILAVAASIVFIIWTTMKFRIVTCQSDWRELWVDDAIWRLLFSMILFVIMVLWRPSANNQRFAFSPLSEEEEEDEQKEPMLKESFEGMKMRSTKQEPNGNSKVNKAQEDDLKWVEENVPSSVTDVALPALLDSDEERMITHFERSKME
# UniProt Q8N5Y2: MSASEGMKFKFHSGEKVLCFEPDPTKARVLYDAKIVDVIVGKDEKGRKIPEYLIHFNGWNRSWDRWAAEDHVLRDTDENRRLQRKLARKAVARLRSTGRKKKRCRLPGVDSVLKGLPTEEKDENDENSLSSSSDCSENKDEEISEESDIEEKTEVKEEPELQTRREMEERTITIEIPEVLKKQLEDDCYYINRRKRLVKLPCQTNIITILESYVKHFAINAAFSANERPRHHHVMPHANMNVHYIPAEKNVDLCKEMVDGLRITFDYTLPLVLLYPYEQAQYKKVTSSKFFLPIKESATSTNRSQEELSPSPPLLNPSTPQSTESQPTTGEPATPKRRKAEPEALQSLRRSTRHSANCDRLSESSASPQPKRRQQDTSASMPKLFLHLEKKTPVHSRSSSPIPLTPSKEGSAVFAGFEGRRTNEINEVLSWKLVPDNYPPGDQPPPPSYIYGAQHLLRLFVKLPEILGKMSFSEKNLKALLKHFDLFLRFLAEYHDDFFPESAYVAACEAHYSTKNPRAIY
# UniProt Q8NHP6: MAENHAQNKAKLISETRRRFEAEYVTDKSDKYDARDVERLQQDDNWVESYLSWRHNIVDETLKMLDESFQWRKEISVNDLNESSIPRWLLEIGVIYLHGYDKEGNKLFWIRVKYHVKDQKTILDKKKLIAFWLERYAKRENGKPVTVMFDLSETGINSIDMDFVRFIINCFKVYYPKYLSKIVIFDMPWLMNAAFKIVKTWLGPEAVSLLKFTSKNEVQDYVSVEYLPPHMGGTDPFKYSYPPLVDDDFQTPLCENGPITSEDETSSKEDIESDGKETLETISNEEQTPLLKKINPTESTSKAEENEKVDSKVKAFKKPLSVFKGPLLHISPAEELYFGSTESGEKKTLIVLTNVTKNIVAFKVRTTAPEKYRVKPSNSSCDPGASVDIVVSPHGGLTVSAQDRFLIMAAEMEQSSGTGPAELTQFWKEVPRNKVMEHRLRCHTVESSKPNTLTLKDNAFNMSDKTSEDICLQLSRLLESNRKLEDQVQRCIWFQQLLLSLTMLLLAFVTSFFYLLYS
# The other results are listed elsewhere or left out. Most entries show no effect beyond the scatter of the controls.
# Compound: CN[C@@H]1C[C@H]2O[C@@](C)([C@@H]1OC)n1c3ccccc3c3c4c(c5c6ccccc6n2c5c31)C(=O)NC4 [staurosporine]
# Assay: log2 fold change of tryptic peptide abundance, ligand vs vehicle (limited proteolysis) (log2 ratio); higher = more trypsin-susceptible (destabilized)
# Conditions: ligand concentration: 20 uM; sample: K562 cleared lysate; digestion: 4 min, 22 C (HT-PELSA RT4min, Orbitrap Astral)
row,Target,log2 fold change
1,"TMEM199 (peptide sequence: HGGTLSDLGK, peptide start residue: 129) (UniProt Q8N511)",0.674
2,"ZNRF1 (peptide sequence: ASLADALPLHIAPR, peptide start residue: 122) (UniProt Q8ND25)",-0.0535
3,"DDX55 (peptide sequence: CPLQEMKPQR, peptide start residue: 389) (UniProt Q8NHQ9)",-0.38
4,"UniProt Q8NDB6 (peptide sequence: HRDHMAPYAVGR, peptide start residue: 98)",0.435
5,"UniProt Q8NBJ5 (peptide sequence: ALQAQEIECR, peptide start residue: 361)",0.573
6,"UniProt Q8N531 (peptide sequence: LSGCHGVTADALVMLAK, peptide start residue: 227)",0.463
7,"ZGPAT (peptide sequence: FDSLLLR, peptide start residue: 250) (UniProt Q8N5A5)",-0.154
8,"GUF1 (peptide sequence: EKEITIINPAQFPDKSK, peptide start residue: 449) (UniProt Q8N442)",0.662
9,"RNF214 (peptide sequence: SDEGLPDGLSTK, peptide start residue: 27) (UniProt Q8ND24)",0.11
10,"NEDD1 (peptide sequence: SSLGDMFSPIRDDAVVNK, peptide start residue: 404) (UniProt Q8NHV4)",-0.147
11,"ANKLE1 (peptide sequence: HLPVSTVSDLELLK, peptide start residue: 355) (UniProt Q8NAG6)",0.227
12,"PUM2 (peptide sequence: MIDMAEPAQR, peptide start residue: 1008) (UniProt Q8TB72)",0.448
13,"KIF18A (peptide sequence: TASINQNVR, peptide start residue: 242) (UniProt Q8NI77)",-0.528
14,"UniProt Q8N883 (peptide sequence: SSLSLINQK, peptide start residue: 139)",-0.339
15,"FBXO30 (peptide sequence: FCPSIQGAK, peptide start residue: 569) (UniProt Q8TB52)",-0.165
16,"POC5 (peptide sequence: KEEYGPGVQGK, peptide start residue: 385) (UniProt Q8NA72)",1
17,"ZNRF2 (peptide sequence: SLGGAVGSVASGAR, peptide start residue: 82) (UniProt Q8NHG8)",0.0151
18,"TMEM87A (peptide sequence: MITHFER, peptide start residue: 545) (UniProt Q8NBN3)",0.261
19,"GOLGA5 (peptide sequence: VDQGAATALSR, peptide start residue: 18) (UniProt Q8TBA6)",-0.449
20,"ASCC1 (peptide sequence: YNLYTAEGK, peptide start residue: 323) (UniProt Q8N9N2)",-0.113
21,"UniProt Q8N5L8 (peptide sequence: AVSCAEIVKR, peptide start residue: 67)",-0.712
22,"MSL3 (peptide sequence: SSSPIPLTPSK, peptide start residue: 398) (UniProt Q8N5Y2)",0.496
23,"UniProt Q8N9L1 (peptide sequence: THTGEKPFR, peptide start residue: 852)",-0.408
24,"ZNF808 (peptide sequence: NSVLAVHTR, peptide start residue: 551) (UniProt Q8N4W9)",0.495
25,"UniProt Q8N8K9 (peptide sequence: GPPGTHGTNQQVAMQMPVSTSHPNK, peptide start residue: 295)",-0.455
26,"SRBD1 (peptide sequence: KEENDDDFTFGQSALK, peptide start residue: 167) (UniProt Q8N5C6)",0.319
27,"LPCAT1 (peptide sequence: AAPASSAGASDAR, peptide start residue: 10) (UniProt Q8NF37)",0.0776
28,"MOSPD2 (peptide sequence: TLIVLTNVTK, peptide start residue: 348) (UniProt Q8NHP6)",0.105
29,"ZBTB34 (peptide sequence: ESQITEVK, peptide start residue: 228) (UniProt Q8NCN2)",0.162

# Numbers 17 through 18 of the list above:
row,Target,log2 fold change
17,"ZNRF2 (peptide sequence: SLGGAVGSVASGAR, peptide start residue: 82) (UniProt Q8NHG8)",0.0151
18,"TMEM87A (peptide sequence: MITHFER, peptide start residue: 545) (UniProt Q8NBN3)",0.261
